In PMC10163288:
The list shows a part of the results.

B1: il2ra_site1_1z92_normal_mot_1314d61ee722589b4fd511cf1ceb5c8f_0001_000000256_0001_17_32_H_._595119ead38f9ce12e857540ce41a9a5_0001_1_af2_0001_0000200007_0000001_0 … (protein)
chain: SEEEELRELAEEGDLQAIDELIIELEEKLNVPPEEAARILLEELERLGNPKAAKAVKHAIRAARA
B2: il2ra_site1_1z92_sap_10_mot_HHH_b1_07196_000000117_0001_22_39_H_._HHH_b1_00276_af2_0001_0000200005_0000001_0_0001_af2pred_0001_af2pred_1 (protein)
chain: SLEEALEFLEELAKELNDPALKFLVEQLERKVRLGNEEAARKQVEKALRFSGDPRLEEVLKLLRK
B3: il2ra_site2_2erj_normal_mot_76e6e8f7232a9e65eeaab5ff8ecb4c96_0001_000000242_0001_17_31_H_._HHH_b2_02630_af2_0001_0001000017_0000001_0_af2pred_0001_af2pred (protein)
chain: SSSSSDEEREEAEKLLEEAQEIEDPEEAKEVALEALEVAVRVDDEELEKRILELFERLRSSSSSS
B4: il2ra_site1_2b5i_normal_mot_f5ff40796168375b462bec8614a1db4a_0001_1_000000138_0001_53_65_H_._HHH_b1_06054_af2_0001_0000100001_0000001_0_af2pred_dldesign_0_af2pr … (protein)
chain: SSSSSEDLRENTERLLELARELYEKGELEEARKLLILAKKLAEKAKDPELIAEIDEALKLVSSSS
B5: il2ra_site1_2b5i_normal_mot_HHH_b1_02217_af2_000000060_0001_42_56_H_._HHH_b1_03152_0001_0000100008_0000001_0_af2pred_dldesign_0_af2pred (protein)
chain: SSSSDPEARLEELAAELFKLSISGKKEEFEKVYEEALRLAKELKDEKTIEQLEFLKERLESSSSS
B6: il2ra_site2_2erj_normal_mot_HHH_b2_08311_000000151_0001_42_56_H_._HHH_b1_01841_0001_0000200008_0000001_0 (protein)
chain: SSSSDEEFRELAIRAHELALEYERENDERLREELRELLEEVEELGDEVLFRYVELLLRELSSSSS
B7: il2ra_site1_1z92_normal_mot_7f39e2d7389de0c2f60e905c27398b6a_0001_1_000000104_0001_37_51_H_._b993f726e2a1b23aaa9ca63207d855c5_0001_0001_0000200010_0000001_0_af2 … (protein)
chain: GEEEVEIAEKMAGGDPEKFVRLVLRLLKAAGELSPEELKELEEKLEELLKRDPEKAKELAERALE
B8: il2ra_site1_3nfp_sap_10_mot_HHH_b1_03753_af2_000000088_0001_41_54_H_._HHH_b2_08022_af2_0001_0000500028_0000001_0_0001 (protein)
chain: SSSSSEVERLSRLFHEAYRAAKNGDHEEARELLEEALEIAEEAGNRAAKRSLEAAEKQVNSSSSS
B9: il2ra_site2_3nfp_sap_30_mot_ems_3hM_287_af2_000000177_0001_46_64_H_._389fc1b6a7361b8bfcefbbec9e626cb8_0001_af2_0001_0000500034_0000001_0_0001 (protein)
chain: DLLLELAAEAWERGDEDLFALVSAALHAKQQGVPPEEIEEELKRIVELAGIPPEVLELVEEAVRT
B10: il2ra_site2_2erj_normal_mot_HHH_b1_02566_000000063_0001_42_58_H_._HHH_b1_02927_af2_0001_0000700007_0000001_0 (protein)
chain: SSSSNEAWEEVAELLLQAYEAARNNDEELLKELLEQAREIAEEANSEALKRYVEFARRLQESSSS
B11: il2ra_site1_3nfp_sap_21_mot_547aa2ef8f6f7cecb07f26a8b8f5883c_0001_1_000000275_0001_1_15_H_._HHH_b1_04668_0001_0000700018_0000001_0_0001 (protein)
chain: SIAEAFARLVANAPNPRLDARHVIKALREAAPDPERVKEIVREIIELLEELGNPEAAEILEELLK
B12: il2ra_site1_3nfp_normal_mot_HHH_b1_00233_000000159_0001_1_17_H_._HHH_b1_02182_0001_0000900016_0000001_0_af2pred_0001_af2pred_1 (protein)
chain: SSSSSEVARIVIELAEEFNLDHEASEKLIRLAAKLLLRGVSEEEIEELLEELAKRLAEELSSSSS
B13: il2ra_site1_1z92_sap_30_mot_HHH_b1_06519_000000232_0001_23_40_H_._HHH_b1_01092_0001_0000500023_0000001_0_0001_af2pred_0001_af2pred_1 (protein)
chain: SSSSSSEQSARHIVKAAVEAARLSEEQEKELEELAEELVRRGYSFEEIFRILDELALKLASSSSS
B14: il2ra_site1_3nfp_normal_mot_HHH_b1_07644_af2_000000110_0001_40_57_H_._56b2e862c5d7020fcb9d25388f5aedda_0001_af2_0001_0000100004_0000001_0 (protein)
chain: DIAERLLRQAKELGDLKAVSDVAAAAAFHRNDPELEERIEKLKEEAKENPEVEEELIELAERLLK
B15: il2ra_site2_3nfp_normal_mot_HHH_b2_06150_000000217_0001_39_53_H_._HHH_b1_07298_af2_0001_0000600027_0000001_0 (protein)
chain: SSSSDEEEKVRRLLEQLEELLEEGDEEKFRELVAEVAHLIFEANNSELFFLLAEILFEAEQSSSS
B16: il2ra_site1_3nfp_sap_25_mot_HHH_b1_04735_000000141_0001_19_38_H_._HHH_b1_07714_af2_0001_0000100005_0000001_0_0001_af2pred_0001_af2pred_swapped (protein)
chain: SEAVELAREALKILPPRAKRLLSQVLAKLLREGDEEAMRELVEEVLELAKHDPREAEKFLEEILK
B17: il2ra_site2_2erj_sap_20_mot_HHH_b1_04154_000000022_0001_1_15_H_._HHH_b1_05101_0001_0000300007_0000001_0_0001_af2pred_0001_af2pred (protein)
chain: SSSSSSEEEEIVEELVEKFGLSEEQKELLEELAKLAHEAGYDEEVIRAVLERAARTLAELSSSSS
B18: il2ra_site2_2erj_sap_27_mot_HHH_b1_03572_af2_000000102_0001_41_56_H_._HHH_b2_03105_0001_0000200007_0000001_0_0001 (protein)
chain: SSSDNLHFIFEVAVRLMRLLQEGNEEEAEQLIKEAREFAEENGDELSRENLEEIFEHLKRASSSS
B19: il2ra_site1_1z92_sap_14_mot_1581cc1c700002558836ca695aafbf97_0001_1_af2_000000099_0001_17_32_H_._d5167a162c519d043ddc16d89768c28c_0001_1_0001_0000200019_0000001 … (protein)
chain: SSSSSDEERNARIVVRAIVRLAGLSEEDEEELRQIAKELVEEGVSWEEISRILEELVLGSSSSSS

target: il2ra, P01589; experiment: yeast display titration

Apparent Kd, inactive:
B1 no binding seen, B2 no binding seen, B3 no binding seen, B4 no binding seen, B5 no binding seen, B6 no binding seen, B7 no binding seen, B8 no binding seen, B9 no binding seen, B10 no binding seen, B11 no binding seen, B12 no binding seen, B13 no binding seen, B14 no binding seen, B15 no binding seen, B16 no binding seen, B17 no binding seen, B18 no binding seen, B19 no binding seen
